Test results reported in patent publication US11814444B2 (Ra Pharmaceuticals, Inc., priority 2018, dated 2023).

Test: general procedure: Fmoc solid-phase peptide synthesis; PS Rink-Amide MBHA resin; DIC / Oxyma Pure
Details: whole synthesis, scale 0.250 mmol

Substance	crude mass
Example 3 Int-A	399 mg
Example 4 Int-A	300 mg
